Reference: PubChem BioAssay AID1259254 (NCATS, 2017)
Assay: 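Gene knock-downs that lead to re-replication, shown by excess G2 DNA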 (primary screen). Cells: human HCT116 colorectal cancer cells. Reagents: single siRNA against human genes. Time to read-out: 3 days. Measurement: 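Imaged Hoechst DNA stain sorts each cell into a cycle phase by DNA amount; per plate, G2 fraction set to 0% for non-targeting and 100% for GMNN siRNA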. Reading the numbers: G2 robust z-score and G2 cells, % of GMNN control: higher = more G2 cells, more excess DNA replication; raw share of cells in G2: higher = larger share of cells with G2 DNA content. Call rule: 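An siRNA counts as active if its G2 robust z-score lies at least 5 MADs above the screen median; here such calls match roughly 38% of GMNN control or more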.
The deposit covers about 59,000 reagents; shown is an unselected part. About 1,550 of them (2.6%) were called active. 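G2 share is only a proxy for re-replication; each gene was hit by three separate siRNAs, and active genes were retested.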 Raw values vary from plate to plate and are shown uncorrected. Reagents against one gene are numbered here. The record does not give: the amount of reagent.

| gene | reagent | G2 robust z-score | G2 cells, % of GMNN control | raw share of cells in G2 (%) | Call |
| --- | --- | --- | --- | --- | --- |
| CLIP3 | 1 | -0.471 | -0.349 | 4.28 | inactive |
| CLIP3 | 2 | 0.572 | 6.99 | 6.97 | inactive |
| CLIP3 | 3 | 1.53 | 13.7 | 8.1 | inactive |
| LOC100288510 | 1 | 3.29 | 26.1 | 13.3 | inactive |
| LOC100288510 | 2 | -0.957 | -3.76 | 2.02 | inactive |
| LOC100288510 | 3 | 0.407 | 5.83 | 7.21 | inactive |
| PNPLA8 | 1 | -0.294 | 0.898 | 6.36 | inactive |
| PNPLA8 | 2 | -0.528 | -0.747 | 3.97 | inactive |
| PNPLA8 | 3 | -0.379 | 0.3 | 3.92 | inactive |
| SENP7 | 1 | 2.27 | 18.9 | 11 | inactive |
| SENP7 | 2 | -0.282 | 0.986 | 4.58 | inactive |
| SENP7 | 3 | -0.691 | -1.9 | 4.86 | inactive |
| GRAMD1B | 1 | 0.0523 | 3.34 | 5.66 | inactive |
| GRAMD1B | 2 | -0.928 | -3.56 | 2.76 | inactive |
| GRAMD1B | 3 | 2.43 | 20.1 | 9.39 | inactive |
| SRSF8 | 1 | -0.303 | 0.839 | 6.06 | inactive |
| SRSF8 | 2 | -0.0562 | 2.57 | 4.67 | inactive |
| SRSF8 | 3 | -0.0402 | 2.68 | 7.54 | inactive |
| CHRD | 1 | -0.774 | -2.48 | 4.03 | inactive |
| CHRD | 2 | -0.299 | 0.862 | 4.24 | inactive |
| CHRD | 3 | 2.05 | 17.4 | 9.49 | inactive |
| HARS2 | 1 | -1.09 | -4.72 | 2.25 | inactive |
| HARS2 | 2 | -0.772 | -2.47 | 3.33 | inactive |
| HARS2 | 3 | 0.11 | 3.74 | 7.87 | inactive |
| NT5C | 1 | -1.46 | -7.32 | 1.06 | inactive |
| NT5C | 2 | 2.26 | 18.8 | 11.7 | inactive |
| NT5C | 3 | 0.456 | 6.17 | 5.2 | inactive |
| NECAB1 | 1 | -0.75 | -2.31 | 3.39 | inactive |
| NECAB1 | 2 | 3.82 | 29.8 | 18 | inactive |
| NECAB1 | 3 | 1.17 | 11.2 | 8.32 | inactive |
| SRRM2 | 1 | -0.859 | -3.08 | 3.26 | inactive |
| SRRM2 | 2 | 1.75 | 15.3 | 10.6 | inactive |
| SRRM2 | 3 | -0.385 | 0.256 | 3.39 | inactive |
| CRYBB3 | 1 | 0.533 | 6.72 | 8.45 | inactive |
| CRYBB3 | 2 | -0.24 | 1.28 | 4.56 | inactive |
| CRYBB3 | 3 | -0.392 | 0.21 | 3.6 | inactive |
| MTF2 | 1 | -0.0786 | 2.41 | 4.33 | inactive |
| MTF2 | 2 | -0.159 | 1.85 | 6.81 | inactive |
| MTF2 | 3 | -0.634 | -1.49 | 2.71 | inactive |

Records listed so far whose gene name begins with N or n (6):
| gene | reagent | G2 robust z-score | G2 cells, % of GMNN control | raw share of cells in G2 (%) | Call |
| --- | --- | --- | --- | --- | --- |
| NT5C | 1 | -1.46 | -7.32 | 1.06 | inactive |
| NT5C | 2 | 2.26 | 18.8 | 11.7 | inactive |
| NT5C | 3 | 0.456 | 6.17 | 5.2 | inactive |
| NECAB1 | 1 | -0.75 | -2.31 | 3.39 | inactive |
| NECAB1 | 2 | 3.82 | 29.8 | 18 | inactive |
| NECAB1 | 3 | 1.17 | 11.2 | 8.32 | inactive |

Continued:
| gene | reagent | G2 robust z-score | G2 cells, % of GMNN control | raw share of cells in G2 (%) | Call |
| --- | --- | --- | --- | --- | --- |
| CCDC92 | 1 | -0.872 | -3.17 | 1.51 | inactive |
| CCDC92 | 2 | 0.428 | 5.98 | 6.93 | inactive |
| CCDC92 | 3 | -0.409 | 0.0917 | 4.34 | inactive |
| OSBPL3 | 1 | -0.846 | -2.98 | 3.01 | inactive |
| OSBPL3 | 2 | 1.55 | 13.9 | 12.5 | inactive |
| OSBPL3 | 3 | -0.749 | -2.3 | 3.42 | inactive |
| WDR81 | 1 | -0.408 | 0.0952 | 4.13 | inactive |
| WDR81 | 2 | -0.301 | 0.851 | 3.58 | inactive |
| WDR81 | 3 | 1.04 | 10.3 | 4.82 | inactive |
| LINC01750 | 1 | -0.548 | -0.889 | 3.3 | inactive |
| LINC01750 | 2 | 0.758 | 8.3 | 6.26 | inactive |
| LINC01750 | 3 | -0.325 | 0.683 | 3.34 | inactive |
| ATAT1 | 1 | 0.864 | 9.04 | 8.2 | inactive |
| ATAT1 | 2 | 1.78 | 15.5 | 11.1 | inactive |
| ATAT1 | 3 | 0.294 | 5.03 | 3.75 | inactive |
| ITGB2 | 1 | 0.389 | 5.7 | 6.29 | inactive |
| ITGB2 | 2 | 1.25 | 11.7 | 9.31 | inactive |
| ITGB2 | 3 | 2.93 | 23.6 | 14.7 | inactive |
| CD14 | 1 | 0.0334 | 3.2 | 6.16 | inactive |
| CD14 | 2 | -0.0861 | 2.36 | 4.91 | inactive |
| CD14 | 3 | -0.751 | -2.32 | 4.13 | inactive |
| INTS11 | 1 | -1.1 | -4.79 | 4.33 | inactive |
| INTS11 | 2 | 1.54 | 13.8 | 9.39 | inactive |
| INTS11 | 3 | -0.64 | -1.53 | 3.69 | inactive |
| OR11H6 | 1 | -0.674 | -1.78 | 3.38 | inactive |
| OR11H6 | 2 | -0.939 | -3.64 | 2.25 | inactive |
| OR11H6 | 3 | -0.657 | -1.66 | 1.33 | inactive |
| HEXIM1 | 1 | -0.747 | -2.29 | 4.09 | inactive |
| HEXIM1 | 2 | 5.28 | 40.1 | 20.7 | active |
| HEXIM1 | 3 | -0.593 | -1.2 | 2.72 | inactive |
